No constants are given. Whether binding was seen depends on the method and setting. Binding seen in cells or lysates may run through a third protein. Some binding calls cover weakened binding; strength is not graded here. Sequences can lack the tags named with a protein.

Amino acid sequences for entries named in this document (tags omitted).
UniProt P40646: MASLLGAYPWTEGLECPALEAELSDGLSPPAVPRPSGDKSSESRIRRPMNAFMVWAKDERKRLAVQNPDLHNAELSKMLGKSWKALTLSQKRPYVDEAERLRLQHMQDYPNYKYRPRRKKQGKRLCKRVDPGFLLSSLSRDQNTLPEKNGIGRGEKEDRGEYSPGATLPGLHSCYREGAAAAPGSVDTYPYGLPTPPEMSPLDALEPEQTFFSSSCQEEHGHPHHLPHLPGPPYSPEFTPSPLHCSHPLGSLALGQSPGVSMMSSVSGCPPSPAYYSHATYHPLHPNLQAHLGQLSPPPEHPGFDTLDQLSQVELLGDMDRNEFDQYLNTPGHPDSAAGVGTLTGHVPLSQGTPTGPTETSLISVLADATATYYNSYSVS

Experiment [1] addresses T1, 6-phosphogluconate dehydrogenase (6PGD), Flag-tagged (mouse) (UniProt Q9DCD0).
T1 sequence: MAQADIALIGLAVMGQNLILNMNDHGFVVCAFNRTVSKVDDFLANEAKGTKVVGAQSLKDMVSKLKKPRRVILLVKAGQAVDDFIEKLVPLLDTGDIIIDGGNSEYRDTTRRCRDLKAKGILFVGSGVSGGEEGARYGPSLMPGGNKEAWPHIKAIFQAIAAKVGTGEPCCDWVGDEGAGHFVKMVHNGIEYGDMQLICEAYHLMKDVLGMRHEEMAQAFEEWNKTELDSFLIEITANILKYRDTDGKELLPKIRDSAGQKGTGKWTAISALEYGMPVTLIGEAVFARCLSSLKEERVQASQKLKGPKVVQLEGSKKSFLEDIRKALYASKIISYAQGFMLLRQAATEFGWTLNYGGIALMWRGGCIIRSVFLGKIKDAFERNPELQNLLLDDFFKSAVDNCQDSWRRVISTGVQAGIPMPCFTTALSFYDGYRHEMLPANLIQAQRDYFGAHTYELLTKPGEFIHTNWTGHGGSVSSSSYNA
Put plainly: co-IP; HEK293 cells co-transfected 1:1 (6PGD:HDAC or SOX7) for 24 h; lysed in RIPA or mild lysis buffer; lysates immunoprecipitated with anti-Flag (6PGD as bait) and Dynabeads Protein G; immunoblot with anti-V5 and anti-Flag. (A western blot detects proteins with antibodies after separation by electrophoresis.)

In experiment [2] the target is T1, 6-phosphogluconate dehydrogenase (6PGD), Flag-tagged (mouse). Put plainly: cross-linking; lysates of transfected HEK293 cells (50 mM HEPES, 150 mM NaCl, 0.5% Triton X-100) incubated with 0.025% glutaraldehyde for 15 min at room temperature, quenched with 50 mM Tris-HCl; immunoblot.
Experiment [3] has as its target T2, Histone deacetylase 6, V5-tagged (mouse) (UniProt Q9Z2V5).
T2 sequence: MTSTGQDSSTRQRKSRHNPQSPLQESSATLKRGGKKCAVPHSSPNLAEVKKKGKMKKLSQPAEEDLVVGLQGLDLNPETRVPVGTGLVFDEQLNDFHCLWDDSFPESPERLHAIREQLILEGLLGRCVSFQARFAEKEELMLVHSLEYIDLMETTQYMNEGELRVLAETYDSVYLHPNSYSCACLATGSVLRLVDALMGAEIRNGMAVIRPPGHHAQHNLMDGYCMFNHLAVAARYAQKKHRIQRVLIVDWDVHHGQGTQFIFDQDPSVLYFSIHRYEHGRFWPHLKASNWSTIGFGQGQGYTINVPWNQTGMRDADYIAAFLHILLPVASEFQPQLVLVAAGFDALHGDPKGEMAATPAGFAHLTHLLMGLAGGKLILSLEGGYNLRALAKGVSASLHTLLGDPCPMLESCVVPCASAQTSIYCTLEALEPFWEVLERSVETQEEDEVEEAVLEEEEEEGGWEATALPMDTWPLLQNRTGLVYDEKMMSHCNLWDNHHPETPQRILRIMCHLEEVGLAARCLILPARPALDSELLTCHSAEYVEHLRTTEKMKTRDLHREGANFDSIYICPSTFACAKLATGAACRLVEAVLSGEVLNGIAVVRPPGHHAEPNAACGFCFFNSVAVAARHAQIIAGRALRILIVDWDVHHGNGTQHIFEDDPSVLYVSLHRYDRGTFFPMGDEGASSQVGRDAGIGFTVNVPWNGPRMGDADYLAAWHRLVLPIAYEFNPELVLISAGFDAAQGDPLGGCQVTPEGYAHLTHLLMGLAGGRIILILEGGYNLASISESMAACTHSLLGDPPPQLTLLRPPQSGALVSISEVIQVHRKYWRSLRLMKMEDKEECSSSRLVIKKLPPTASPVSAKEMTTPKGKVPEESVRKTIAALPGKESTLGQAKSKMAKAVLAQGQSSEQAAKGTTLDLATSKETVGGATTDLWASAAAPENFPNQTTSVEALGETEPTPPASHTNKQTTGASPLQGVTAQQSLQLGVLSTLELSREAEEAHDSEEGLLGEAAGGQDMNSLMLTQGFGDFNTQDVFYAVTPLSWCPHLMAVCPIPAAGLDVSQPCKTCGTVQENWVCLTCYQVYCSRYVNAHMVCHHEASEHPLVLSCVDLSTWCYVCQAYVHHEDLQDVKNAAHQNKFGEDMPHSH
Briefly: co-IP; HEK293 cells co-transfected 1:1 (6PGD:HDAC) for 24 h; lysed in RIPA or mild lysis buffer; lysates immunoprecipitated with anti-V5 (HDAC as bait) and Dynabeads Protein G; immunoblot with anti-Flag and anti-V5.

Consider “SOX7, V5-tagged (unrelated control protein) (from UniProt P40646 1-380)”, for which the binding result in experiment [1] is recorded as “no binding”.

B1: 6-phosphogluconate dehydrogenase (6PGD), Flag-tagged (enzyme, mouse, UniProt Q9DCD0 1-483, looked up)
chain: T1 sequence
notes: mouse 6-phosphogluconate dehydrogenase (6PGD); A shorter ~40 kDa form (6PGD-s), also detected by anti-Flag, arises in the same cells; also called full-length 6PGD; source: HEK293, transfected (pCMV-based construct), in lysate
As to B1, the results for the binding entry in experiment [2] and in experiment [3] were “binds” and “no binding”, respectively.

The values are drawn from PMC11555707, “Histone deacetylase 7 activates 6-phosphogluconate dehydrogenase via an enzyme-independent mechanism that involves the N-terminal protein-protein interaction domain” (Biochemical Journal, 2024).
